Measurements published in patent US20180162944A1 (WUXI BIOLOGICS SHANGHAI, published 2018).
No constants are given. Whether binding was seen depends on the method and setting. Some binding calls cover weakened binding; strength is not graded here.

Key:
cynomolgus monkey PD-L1 [1] = biological target: T1, cynomolgus monkey PD-L1 (cynomolgus monkey, UniProt G7PSE7 19-238); assay: ELISA, antigen coated on plate
T1 construct: also called cyno PD-L1

cynomolgus monkey PD-L1 [2] = biological target: T1, cynomolgus monkey PD-L1; assay: ELISA or FACS

binding (cynomolgus monkey PD-L1 [1]) | binding (cynomolgus monkey PD-L1 [2]) | Binder
binds | binds | 2.74.15.hAb7 (antibody, V domains shown, Humanized antibody with a human constant region of IgG4 isotype) VH: QVQLQESGPGLVKPSETLSLTCTVSGYSITSGYIWHWIRQPPGKGLEWIGYIHYSGTTDFNPSLESRVTISVDTSKNQFSLKLSSVTAADTAVYYCAREGRSYGGFAYWGQGTLVTVSS VL: DIQLTQSPSFLSASVGDRVTITCKASQSVSNGVAWYQQKPGKAPKLLIYYASNRFTGVPSRFSGSGSGTEFTLTISSLQPEDFATYYCQQDYSSPFTFGQGTKLEIK
binds | binds | 2.74.15.hAb6 (antibody, V domains shown, Humanized antibody with a human constant region of IgG4 isotype) VH: QVQLQESGPGLVKPSETLSLTCTVTGYSITSGYIWHWIRQPAGKGLEWIGYIHYSGTTDFNPSLESRVTISVDTSKNQFSLKLSSVTAADTAVYYCAREGRSYGGFAYWGQGTLVTVSS VL: DIQMTQSPSSLSASVGDRVTITCKASQSVSNGVAWYQQKPGKVPKLLIYYASNRFTGVPSRFSGSGSGTDFTLTISSLQPEDVATYYCQQDYSSPFTFGQGTKLEIK

More lines, now with the values behind:

Binder | binding (cynomolgus monkey PD-L1 [1]) | binding (cynomolgus monkey PD-L1 [2])
2.74.15.hAb8 (antibody, V domains shown, Humanized antibody with a human constant region of IgG4 isotype) VH: QVQLQESGPGLVKPSETLSLTCTVSGYSITSGYIWHWIRQPPGKGLEWIGYIHYSGTTDFNPSLESRVTISVDTSKNQFSLKLSSVTAADTAVYYCAREGRSYGGFAYWGQGTLVTVSS VL: DIQMTQSPSSLSASVGDRVTITCKASQSVSNGVAWYQQKPGKVPKLLIYYASNRFTGVPSRFSGSGSGTDFTLTISSLQPEDVATYYCQQDYSSPFTFGQGTKLEIK | binds | binds
2.74.15.hAb4 (antibody, V domains shown, Humanized antibody with a human constant region of IgG4 isotype) VH: QVQLQESGPGLVKPSETLSLTCTVSGYSITSGYIWHWIRQPPGKGLEWIGYIHYSGTTDFNPSLESRVTISVDTSKNQFSLKLSSVTAADTAVYYCAREGRSYGGFAYWGQGTLVTVSA VL: SFVMTQSPSSLSASVGDRVTITCKASQSVSNGVAWYQQKPGKVPKLLIYYASNRFTGVPSRFSGSGSGTDFTLTISSLQPEDVATYYCQQDYSSPFTFGSGTELEIK | binds | binds
2.74.15.hAb5 (antibody, V domains shown, Humanized antibody with a human constant region of IgG4 isotype) VH: QVQLQESGPGLVKPSETLSLTCTVTGYSITSGYIWHWIRQPAGKGLEWIGYIHYSGTTDFNPSLESRVTISVDTSKNQFSLKLSSVTAADTAVYYCAREGRSYGGFAYWGQGTLVTVSS VL: DIQLTQSPSFLSASVGDRVTITCKASQSVSNGVAWYQQKPGKAPKLLIYYASNRFTGVPSRFSGSGSGTEFTLTISSLQPEDFATYYCQQDYSSPFTFGQGTKLEIK | binds | binds
